Values quoted from earlier work as cited in US20200323843A1 (IRR, Inc., priority 2010, published 2020).

Conditions: in vivo; cited from earlier work

O=C(O)COCCN1CCN([C@H](c2ccccc2)c2ccc(Cl)cc2)CC1 [Levocetirizine, levocetirizine]
time to peak plasma level: 0.9 h
